# Results of single-concentration screens

Measurements from “University of Dundee, Small-Polar-MMV Screening Library” (2021), ChEMBL document CHEMBL3988442.

T. brucei: 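Whole-parasite assay of Trypanosoma brucei over 72 hours; the read-out is not stated. Compounds at 30 µM. Direction is inferred from retests: higher values go with stronger inhibition. Values scatter widely below zero; nearly all retest evidence comes from the higher of the two concentrations used. Size under these conditions: about 64,000 compounds, about 940 of them at 50% or above in at least one test.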
Toxoplasma: 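Assay of Toxoplasma gondii numbers, read through their beta-galactosidase reporter with a colour substrate. Concentration: 10 µM. The record gives no direction; the compounds picked for IC50 retests had high values, so higher reads as fewer parasites. About 67,000 compounds were tested under these conditions; 0.38% (about 260) showed 50% or more at least once.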
Leishmania in macrophages: 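Cell assay of Leishmania donovani living inside macrophages; the read-out is not stated. Concentration: 30 µM. Direction is inferred from retests: higher values go with stronger inhibition. Of about 69,000 compounds tested this way, about 1,000 (1.5%) reached 50% or more in at least one test.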

Results are given as percent effect.
The record does not define 0% and 100%; most values in the screen are far below 50% and negative numbers occur (in some assays of this library far below -100).
The compounds are a random part of those screened.
Two or more numbers in one place are separate tests of the same structure; such repeats can differ widely.
A dash means the value is not listed here; it may have been measured.

structure,T. brucei,Toxoplasma,Leishmania in macrophages
Cn1nc(C(=O)N2CCCCCC2)cc1NC(=O)c1ccccc1,-12.78,-2.454,24.11
CN(C)c1ccc(C(=O)NCc2ccc(N3CCOCC3)cc2)cn1,-50.7,-1.163,-1.142
O=C(O)C(F)(F)F.[H][C@@]12CCN(CC3CCOCC3)[C@@]1([H])CCN2C(=O)c1ccc(C)c(F)c1,-19,0.7589,49.96
CN1CCOC(C(=O)N2CCCC(C)(C)CC2)C1 (stereo not given),-28.06,1.311,12.62
Cc1cccc(CN2CCC3(CC2)NC(=O)C[C@H]3c2cnn(C)c2)n1.O=C(O)C(F)(F)F,-5.843,3.232,3.035
CN(C)c1cc2c(nn1)CCN(C(=O)c1cc3ccccc3[nH]c1=O)C2,-9.025,-1.801,16.73
Cc1cc(CN2CCN(c3ccc4nncn4n3)C(C)C2)no1 (stereo not given),28.88,7.517,8.09
O=c1[nH]c(C2CCOC2)nc2ccc(Br)cc12 (stereo not given),-73.11,9.524,6.428
Cc1nc(C2CCNCC2)cc(N2CCCC(C(=O)NCCCO)C2)n1 (stereo not given),-13.41,-11.59,-24.98
CN(C)Cc1ccc(C(N)=O)cc1NC(=O)c1cccc(C#N)c1,-56.16,2.805,0.5381
Fc1cccc(Oc2ccc(CNCC3CNc4ccnn4C3)cn2)c1 (stereo not given),11.44,4.764,26.15
CN1CCN(C(=O)c2cc(-c3cnc(N4CCCC4)nc3)cn2C)CC1,-37.76,0,17.1
COCCNC(=O)Nc1ccc(C(=O)N2CCSCC2)cc1C,-52.59,13.63,13.66
O=C(O)CC(O)(CC(=O)O)C(=O)O.[H][C@@]12CC[C@@](O)(c3ccccn3)[C@]1([H])CN(Cc1cccc(Cl)c1Cl)C2,13.21,7.495,21.24
O=C(O)C(F)(F)F.O=C(O)C(F)(F)F.[H][C@@]12C[C@H](c3nc(C)no3)CN(Cc3scnc3C)[C@]1([H])CCO2,-16.78,4.364,-6.269
O=C(O)C(F)(F)F.O=C(c1cccs1)N1CC[C@@H](N2CCOCC2)[C@@H]1Cc1ccccc1,16.01,4.459,24.37
Cc1csc(C2CCCCN2C(=O)CN(C)C(C)C)n1 (stereo not given),-,-29.48,14.05
Cn1cc(C2CC(=O)NC23CCN(c2ncc(F)cn2)CC3)cn1 (stereo not given),25.27,2.778,-28.39
COc1cccc(-c2n[nH]cc2CNC2CCN(C(C)C)CC2)c1.Cl,-15.13,3.532,9.953
O=C(Nc1ccccc1)NC1CCN(C2CCOC2)CC1 (stereo not given),-51.88,-1.326,-5.592
CC1CCN(c2ccc(CNC(=O)NCCn3ccnc3)cn2)CC1,-29.98,6.667,-10.4
CCOc1cccc(CN(Cc2cnn(C)c2)CC(C)C)c1O,-2.646,-11.96,2.947
O=C(NCc1ccccc1F)N1CCCCC1C1OCCO1 (stereo not given),-14.43,14.8,-0.9549
CCC(=O)Nc1nnc(CCOc2ccccc2)s1,-30.5,-3.165,-35.99
O=C(CN1CCS(=O)(=O)CC1)NCc1ccccc1F,-25.71,6.484,0.8986
O=C(CCN1CCOC(C(F)(F)F)C1)NCc1ccccc1Cl (stereo not given),-18.91,4.641,-33.49
COCCNC(=O)N1CCSC2(CCCCC2)C1,-8.38,-3.745,-19.07
CCCNC(=O)CNc1cc(C(=O)NCC(F)(F)F)cc(F)c1C,-21.49,-14.38,13.73
CC(=O)N1CCC(c2cncc(N3CCC(O)C3)n2)CC1 (stereo not given),-16.96,4.437,8.685
O=C(O)C(F)(F)F.[H][C@@]12CCN(c3nncs3)[C@@]1([H])CCN2C(=O)C1CCOCC1,-66.34,-2.751,18.25
COC(=O)CNC(=O)C12CCC(=O)N1c1cc(Cl)ccc1S2 (stereo not given),9.989,-5.281,15.2
CCNc1ncc(C(=O)N[C@H]2CC[C@H](n3cnnc3)CC2)cn1,-24.16,-9.332,29.82
CCC1c2ccsc2CCN1C(=O)NCc1ccnc(N(C)C)c1 (stereo not given),14.17,6.651,38.09
COc1cccc(C(=O)NC(c2ccccn2)[C@H]2CC[C@H](CN)CC2)c1 (stereo not given in full),-16.2,18.36,14.47 & 1.464
Cc1noc(-c2ccc(N3CCC(C(=O)N4CCCC4)CC3)nc2)n1,-28.51,8.099,4.293
c1ccc(OCCN2CCc3c(ncn3C3CC3)C2)cc1,1.067,-3.055,26.51
CC(C)NC(=O)COc1ccc(-c2nc(C(C)C)no2)cc1,-5.629,-6.07,6.105
CC(c1ccco1)N(C)Cc1cccc(C(=O)Nc2nccn2C)c1 (stereo not given),-2.471,-,17.51
Cc1nc2n(n1)CC(NCc1nc3ccccc3o1)CC2 (stereo not given),-0.5111,-5.193,35.49
Cc1cc(C)c(CNC(=O)C(C)Oc2ccccc2F)c(=O)[nH]1 (stereo not given),-5.925,2.682,18.4 & 34.02
CCOC(=O)CC1CCCCN1C(=O)c1cc(C)oc1C (stereo not given),-26.52,-5.148,-17.64
[H][C@]12CCN(c3cc(C)ccn3)C[C@]1(COC)CC[C@@H](N1CCOCC1)C2,10.84,-8.621,28.55
CN(CCO)c1ncc(-c2ccc(NC(=O)[C@@H]3CCCCN3)cc2)cn1,14.12,6.955,10.93 & 16.78
CN1CCN(C(=O)Cc2cccc(F)c2)Cc2cccnc21.O=C(O)C(F)(F)F,-11.49,21.96,20.14
Cc1ccc(NCc2ncc(C(C)(C)C)o2)c(Cl)c1,-76.21,0.2363,18.35
CN(C)C(=O)CN1CCCC12CCCN(c1ncc(F)cn1)C2.O=C(O)C(F)(F)F (stereo not given),-66.39,6.881,6.041
CC(C)COC(=O)N1CCCN(C(=O)c2ccnc(N(C)C)c2)CC1,5.039,0,0.1434
CCc1nc(CC)n(CC(=O)NCc2cccc(C)c2)n1,-12.92,1.593,-4.922
CN(C)C(=O)CCCNC(=O)C(c1cccc(F)c1)N(C)C (stereo not given),-8.397,-3.347,-4.952
CS(=O)(=O)NCC1CCCN(C(=O)COCC(F)(F)F)C1 (stereo not given),-17.24,-9.098,20.83
Cc1nn(C)c(C)c1S(=O)(=O)NCCn1ccc(-c2cccs2)n1,-23.55,-4.184,-51.46
Cc1nc2c(c(=O)n1C)CCN(C(=O)CCc1ccccc1O)CC2,0.647,-9.642,-2.728
O=c1[nH]cnc2[nH]c(N3CCNCC3)nc12,-25.31,22.04,24.37
Cc1cc(CNC(=O)N2CCOC(c3ccccc3Cl)C2)no1 (stereo not given),-4.182,3.213,0.4382
Cn1ncc2c1C(COCC1CC1)N(C(=O)c1ccncn1)CC2.O=C(O)C(F)(F)F (stereo not given),-37.63,-3.138,-0.823
CCC1(c2ccc(NS(=O)(=O)c3ccc(Cl)s3)cc2)CCC(=O)NC1=O (stereo not given),-18.2,-3.162,36.72
O=C(O)C(F)(F)F.[H][C@@]12CCN(CC3CCC3)C[C@]1([H])[C@H](C(=O)NC1CC1)CCO2,-29.06,-29.19,21.76
Cn1ccc(N2CCCC(NC(=O)c3ccc(Cl)o3)C2=O)n1 (stereo not given),-64.91,-0.4443,4.638
CCSc1ccccc1C(=O)N1CC2(COC(C)(C)OC2)C1,14.17,6.435,-2.065 & -15.39
O=C(NCc1ccccc1-n1cccn1)N1CCC(N2CCCC2)C1 (stereo not given),10.17,3.63,13.6
O=C(COCc1ccccc1)N1CCC(OCc2cccnc2)CC1,4.978,-11.21,-12.02
Cc1ccc(C(=O)NCC(O)CN2CCCC2=O)c(C)c1 (stereo not given),-16.61,2.183,13.92

Once more, the final 4:

{"structure": "CCSc1ccccc1C(=O)N1CC2(COC(C)(C)OC2)C1", "T. brucei": 14.17, "Toxoplasma": 6.435, "Leishmania in macrophages": "-2.065 & -15.39"}
{"structure": "O=C(NCc1ccccc1-n1cccn1)N1CCC(N2CCCC2)C1", "stereo": "stereo not given", "T. brucei": 10.17, "Toxoplasma": 3.63, "Leishmania in macrophages": 13.6}
{"structure": "O=C(COCc1ccccc1)N1CCC(OCc2cccnc2)CC1", "T. brucei": 4.978, "Toxoplasma": -11.21, "Leishmania in macrophages": -12.02}
{"structure": "Cc1ccc(C(=O)NCC(O)CN2CCCC2=O)c(C)c1", "stereo": "stereo not given", "T. brucei": -16.61, "Toxoplasma": 2.183, "Leishmania in macrophages": 13.92}